Here are results for two molecules from article PMC11471390.

By UniProt entry, the sequences of proteins in these tests, tags left out.
UniProt P56581: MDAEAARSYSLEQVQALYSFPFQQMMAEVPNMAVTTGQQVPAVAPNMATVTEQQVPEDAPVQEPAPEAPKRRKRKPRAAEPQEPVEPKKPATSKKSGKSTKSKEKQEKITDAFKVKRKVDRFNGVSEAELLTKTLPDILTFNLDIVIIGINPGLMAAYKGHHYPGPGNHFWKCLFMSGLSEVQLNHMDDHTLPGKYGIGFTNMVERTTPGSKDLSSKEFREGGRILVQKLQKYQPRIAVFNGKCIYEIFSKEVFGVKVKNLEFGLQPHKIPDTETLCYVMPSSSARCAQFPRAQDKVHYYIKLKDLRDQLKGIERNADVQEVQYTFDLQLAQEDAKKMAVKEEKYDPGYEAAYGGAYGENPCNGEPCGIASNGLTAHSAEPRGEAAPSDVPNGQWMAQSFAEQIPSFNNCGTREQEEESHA

No constants are given. Whether binding was seen depends on the method and setting. In cells and extracts the contact can be indirect. Some results given as binding are weak or reduced against the parent protein; the word gives no strength.

This test deals with T1, DDB1-Cullin-4-associated factor-2 (DCAF2) (mouse (endogenous in P9 mouse testes)) (UniProt Q3TLR7).
T1 sequence: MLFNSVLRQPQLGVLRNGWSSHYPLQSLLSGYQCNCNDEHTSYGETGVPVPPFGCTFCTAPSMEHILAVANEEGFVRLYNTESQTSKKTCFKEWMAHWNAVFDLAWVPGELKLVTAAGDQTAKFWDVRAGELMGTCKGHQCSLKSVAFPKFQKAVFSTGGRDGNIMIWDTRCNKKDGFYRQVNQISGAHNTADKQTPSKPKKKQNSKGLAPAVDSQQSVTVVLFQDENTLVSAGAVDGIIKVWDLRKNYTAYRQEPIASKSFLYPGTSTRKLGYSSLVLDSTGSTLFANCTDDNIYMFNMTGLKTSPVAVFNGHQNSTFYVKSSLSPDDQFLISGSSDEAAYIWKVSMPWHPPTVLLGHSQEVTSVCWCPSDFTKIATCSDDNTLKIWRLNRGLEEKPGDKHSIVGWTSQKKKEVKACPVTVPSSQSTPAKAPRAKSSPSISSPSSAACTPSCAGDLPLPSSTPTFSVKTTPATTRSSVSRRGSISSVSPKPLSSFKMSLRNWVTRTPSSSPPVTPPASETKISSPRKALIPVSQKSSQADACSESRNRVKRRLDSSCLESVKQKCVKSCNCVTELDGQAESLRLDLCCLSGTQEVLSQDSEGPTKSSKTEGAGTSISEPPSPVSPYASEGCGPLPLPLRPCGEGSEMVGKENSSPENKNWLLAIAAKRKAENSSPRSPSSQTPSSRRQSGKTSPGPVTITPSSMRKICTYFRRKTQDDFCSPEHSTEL
Description: co-IP; P9 mouse testes extracted in RIPA buffer; Dynabeads Protein A with bound antibody, 4°C with rotation; samples preincubated with beads conjugated with normal rabbit/mouse IgG; denaturing elution, Western blotting. For orientation: In western blotting, separated proteins are transferred to a membrane and probed.

Turning to “thymine DNA glycosylase (TDG) (from UniProt P56581 1-421)”, the binding entry was “binds”.

B1: cyclin-dependent kinase inhibitor 1A (p21) (protein, UniProt P39689 1-159)
chain: MSNPGDVRPVPHRSKVCRCLFGPVDSEQLRRDCDALMAGCLQEARERWNFDFVTETPLEGNFVWERVRSLGLPKVYLSPGSRSRDDLGGDKRPSTSSALLQGPAPEDHVALSLSCTLVSERPEDSPGGPGTSQGRKRRQTSLTDFYHSKRRLVFCKRKP
Turning to B1, the binding entry was “binds”.
